Experimental data: patent US20260053837A1, “NICOTINAMIDE-RIBOSIDE AND PTEROSTILBENE COMBINATIONS TO TREAT OSTEOARTHRITIS” (The Regents of the University of California, priority 2022, published 2026)
For at least one compound, name, drawing or mass did not settle the structure.

Tested on: injury-induced OA model
Experiment: pain behavior in injury-induced OA model (DMM surgery; Von Frey test, static weight bearing)
Format: in vivo, mice
Conditions: NR 400 mg/kg/day, PT 80 mg/kg/day, NR+PT 5:1, gavage daily after DMM surgery
Method: In vivo studies were designed to determine if oral supplementation of NR+PT (5:1) with NR at 400 mg/kg/day (the commonly used dose in animal studies) and PT at 80 mg/kg/day is better than NR alone (400 mg/kg/day) or PT alone (80 mg/kg/day), in limiting cartilage degradation and reducing pain in an injury-induced OA model. […] Because synergistic or additive effect of NR+PT combination was not initially observed, in vitro studies tested the combination of NR and PT at different ratio (NR:PT, 1:1, 2:1, 4:1, 6:1) and different concentrations (based on PT concentration at 25, 50 and 100 uM) on chondrocyte response to IL-1beta. Because IL-1b is known to induce nitric oxide (NO) production in chondrocytes, NO release (measured from the conditioned media) was used as a readout. It was determined that NR+PT at 2:1 ratio had the best efficacy in inhibition of IL-1b induced NO release, particularly for NR at 0.1 mM and PT at 0.05 mM. […] See, FIGS. 1 and 2. C57BL/6J mice at 12 weeks of age were subjected to joint injury via destabilization of medial meniscus (DMM) surgery through transection of meniscotibial ligament. Sham surgery (just skin incision) was performed on separate group of mice. […] Pain-like behaviors was evaluated at baseline (1 weeks before the surgery) and 2, 4, 6, 8 and 10 weeks after DMM surgery. • 1. […]

## COc1cc(/C=C/c2ccc(O)cc2)cc(OC)c1 [PT, pterostilbene]
  pain compared to the non-treated controls: significantly less pain
